Reference: paper PMC8384837
Where a chain is given by its changes, count along the chain named. Some of the results follow. For some assays here: At the low end of the ranking the order means little.

Tests used:
Details in all cases: yeast three-hybrid, YBZ-1, SC-Leu-His + 0.5 mM 3-AT, 4 days
[1] = target: T1, PUM1 PUF domain R5-DKQ C1007D + R1008K (Homo sapiens) (UniProt Q14671)
T1 sequence: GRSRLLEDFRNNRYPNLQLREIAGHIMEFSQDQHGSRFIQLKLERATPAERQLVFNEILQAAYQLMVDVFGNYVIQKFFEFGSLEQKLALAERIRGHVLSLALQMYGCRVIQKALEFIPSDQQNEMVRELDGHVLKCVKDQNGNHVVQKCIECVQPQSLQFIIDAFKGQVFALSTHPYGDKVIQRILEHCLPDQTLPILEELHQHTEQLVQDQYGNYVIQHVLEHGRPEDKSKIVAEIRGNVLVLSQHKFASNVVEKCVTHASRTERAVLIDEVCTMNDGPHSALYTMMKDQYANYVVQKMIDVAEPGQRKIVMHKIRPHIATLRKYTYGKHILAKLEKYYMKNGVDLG

[2] = target: T2, PUM1 PUF domain R5-DKR C1007D + R1008K + Q1011R (UniProt Q14671)
T2 sequence: T1 sequence with Q184R

[3] = target: T3, PUM1 PUF domain R5-DLR C1007D + R1008L + Q1011R (Homo sapiens) (UniProt Q14671)
T3 sequence: T1 sequence with K181L, Q184R

[4] = target: T4, PUM1 PUF domain R5-DME C1007D + R1008M + Q1011E (UniProt Q14671)
T4 sequence: T1 sequence with K181M, Q184E

[5] = target: T5, PUM1 PUF domain R5-DMR C1007D + R1008M + Q1011R (UniProt Q14671)
T5 sequence: T1 sequence with K181M, Q184R

[6] = target: T6, PUM1 PUF domain R5-DQR C1007D + R1008Q + Q1011R (UniProt Q14671)
T6 sequence: T1 sequence with K181Q, Q184R

[7] = target: T7, PUM1 PUF domain R5-DRD C1007D + Q1011D (UniProt Q14671)
T7 sequence: T1 sequence with K181R, Q184D

[8] = target: T8, PUM1 PUF domain R5-DRR C1007D + Q1011R (UniProt Q14671)
T8 sequence: T1 sequence with K181R, Q184R

[9] = target: T9, PUM1 PUF domain R5-DYF C1007D + R1008Y + Q1011F (Homo sapiens) (UniProt Q14671)
T9 sequence: T1 sequence with K181Y, Q184F

[10] = target: T10, PUM1 PUF domain R5-EAC C1007E + R1008A + Q1011C (Homo sapiens) (UniProt Q14671)
T10 sequence: T1 sequence with D180E, K181A, Q184C

[11] = target: T11, PUM1 PUF domain R5-EAE C1007E + R1008A + Q1011E (UniProt Q14671)
T11 sequence: T1 sequence with D180E, K181A, Q184E

[12] = target: T12, PUM1 PUF domain R5-EGE C1007E + R1008G + Q1011E (UniProt Q14671)
T12 sequence: T1 sequence with D180E, K181G, Q184E

[13] = target: T13, PUM1 PUF domain R5-EKC C1007E + R1008K + Q1011C (Homo sapiens) (UniProt Q14671)
T13 sequence: T1 sequence with D180E, Q184C

[14] = target: T14, PUM1 PUF domain R5-FHG C1007F + R1008H + Q1011G (Homo sapiens) (UniProt Q14671)
T14 sequence: T1 sequence with D180F, K181H, Q184G

[15] = target: T15, PUM1 PUF domain R5-FHI C1007F + R1008H + Q1011I (Homo sapiens) (UniProt Q14671)
T15 sequence: T1 sequence with D180F, K181H, Q184I

[16] = target: T16, PUM1 PUF domain R5-FHK C1007F + R1008H + Q1011K (Homo sapiens) (UniProt Q14671)
T16 sequence: T1 sequence with D180F, K181H, Q184K

[17] = target: T17, PUM1 PUF domain R5-FHT C1007F + R1008H + Q1011T (Homo sapiens) (UniProt Q14671)
T17 sequence: T1 sequence with D180F, K181H, Q184T

[18] = target: T18, PUM1 PUF domain R5-FKR C1007F + R1008K + Q1011R (UniProt Q14671)
T18 sequence: T1 sequence with D180F, Q184R

[19] = target: T19, PUM1 PUF domain R5-FNG C1007F + R1008N + Q1011G (UniProt Q14671)
T19 sequence: T1 sequence with D180F, K181N, Q184G

[20] = target: T20, PUM1 PUF domain R5-FNS C1007F + R1008N + Q1011S (UniProt Q14671)
T20 sequence: T1 sequence with D180F, K181N, Q184S

**Q.** With “GGCUAGAACUAGUGGAUCCCCCGGCGCCCGGCGGCUCGAGCCCGGGUAAGUGUAAAUAGUCUGCAUGCCGCCGGGCGCCAUGCCUGCAGGUCGACUCUAGAAAACAUG” as the sequence, how does the binding signal (log2 enrichment (interaction score)) [1] read?
**A.** Its binding signal (log2 enrichment (interaction score)) is 0.09.

**Q.** What about the binding signal (log2 enrichment (interaction score)) [2] of the same sequence?
**A.** The binding signal (log2 enrichment (interaction score)) was -4.45.

**Q.** And the binding signal (log2 enrichment (interaction score)) [3]?
**A.** Its binding signal (log2 enrichment (interaction score)) is -3.37.

**Q.** What about the binding signal (log2 enrichment (interaction score)) [4] of the same sequence?
**A.** The binding signal (log2 enrichment (interaction score)) was -3.11.

**Q.** And the binding signal (log2 enrichment (interaction score)) [5]?
**A.** The binding signal (log2 enrichment (interaction score)) was less than -7.63.

**Q.** What about the binding signal (log2 enrichment (interaction score)) [6] of the same sequence?
**A.** The binding signal (log2 enrichment (interaction score)) was less than -6.1.

**Q.** And the binding signal (log2 enrichment (interaction score)) [7]?
**A.** The binding signal (log2 enrichment (interaction score)) was -3.33.

**Q.** What about the binding signal (log2 enrichment (interaction score)) [8] of the same sequence?
**A.** Its binding signal (log2 enrichment (interaction score)) is -4.85.

**Q.** And the binding signal (log2 enrichment (interaction score)) [9]?
**A.** Its binding signal (log2 enrichment (interaction score)) is -1.57.

**Q.** And the binding signal (log2 enrichment (interaction score)) [10]?
**A.** Its binding signal (log2 enrichment (interaction score)) is 0.47.

**Q.** And the binding signal (log2 enrichment (interaction score)) [11]?
**A.** The binding signal (log2 enrichment (interaction score)) was less than -7.17.

**Q.** And the binding signal (log2 enrichment (interaction score)) [12]?
**A.** Its binding signal (log2 enrichment (interaction score)) is -5.2.

**Q.** And the binding signal (log2 enrichment (interaction score)) [13]?
**A.** The binding signal (log2 enrichment (interaction score)) was -2.38.

**Q.** What about the binding signal (log2 enrichment (interaction score)) [14] of the same sequence?
**A.** The binding signal (log2 enrichment (interaction score)) was -1.04.

**Q.** What about the binding signal (log2 enrichment (interaction score)) [15] of the same sequence?
**A.** The binding signal (log2 enrichment (interaction score)) was 1.57.

**Q.** And the binding signal (log2 enrichment (interaction score)) [16]?
**A.** The binding signal (log2 enrichment (interaction score)) was -1.26.

**Q.** And the binding signal (log2 enrichment (interaction score)) [17]?
**A.** Its binding signal (log2 enrichment (interaction score)) is 0.41.

**Q.** What about the binding signal (log2 enrichment (interaction score)) [18] of the same sequence?
**A.** Its binding signal (log2 enrichment (interaction score)) is -3.02.

**Q.** What about the binding signal (log2 enrichment (interaction score)) [19] of the same sequence?
**A.** Its binding signal (log2 enrichment (interaction score)) is -4.52.

**Q.** And the binding signal (log2 enrichment (interaction score)) [20]?
**A.** Its binding signal (log2 enrichment (interaction score)) is less than -6.04.
